Assay results taken from US20110177943A1, “Benzyl-Substituted Thiadiazolyloxyphenylamidinium Salts” (priority 2009, published 2011).
Some results were stated once for a whole list of compounds, not compound by compound.

Tests used:
Type in all cases: in vivo
Pyrenophora teres = Pyrenophora teres Test (barley)/protective; conditions: protective, active compound concentration 500 ppm, evaluation 8 days after inoculation
Septoria tritici = Septoria tritici Test (wheat)/protective; conditions: protective, active compound concentration 1000 ppm, evaluation 21 days after inoculation
Puccinia recondita = assay: Puccinia Test (wheat)/protective; conditions: protective, active compound concentration 500 ppm, evaluation 10 days after inoculation
Uromyces appendiculatus = assay: Uromyces Test (bean)/protective; conditions: protective, active compound concentration 10 ppm, evaluation 10 days after inoculation

Measured: efficacy

CCN(C)C=Nc1cc(C)c(Oc2nc(Cc3ccc(Cl)cc3)ns2)cc1C.O=S(=O)(O)O [Example 1, N′-(4-{[3-(4-chlorobenzyl)-1,2,4-thiadiazol-5-yl]oxy}-2,5-dimethylphenyl)-N-ethyl-N-methylimidoformamidesulphate]
≥ 70%: Pyrenophora teres | Septoria tritici | Puccinia recondita

Br.CCN(C)C=Nc1cc(C)c(Oc2nc(Cc3ccc(Cl)cc3)ns2)cc1C [Example 2, N′-(4-{[3-(4-chlorobenzyl)-1,2,4-thiadiazol-5-yl]oxy}-2,5-dimethylphenyl)-N-ethyl-N-methylimidoformamide hydrobromide]
≥ 70%: Pyrenophora teres | Septoria tritici | Puccinia recondita

CCN(C)C=Nc1cc(C)c(Oc2nc(Cc3ccc(Cl)cc3)ns2)cc1C.Cl [Example 3, N′-(4-{[3-(4-Chlorobenzyl)-1,2,4-thiadiazol-5-yl]oxy}-2,5-dimethylphenyl)-N-ethyl-N-methylimidoformamide hydrochloride (1:1)]
≥ 70%: all assays above
